Experimental data published in patent US9586974B2, “Cyclic N-acyl O-amino phenol CBI derivative” (THE SCRIPPS RESEARCH LINSTITUTE, priority 2013, dated 2017).
Some entries share one result that the patent states for a list of compounds.

System: L1210 (ATCC CCL-219) mouse lymphocytic leukemia cells
Assay: Cell growth inhibition assay (phosphatase readout)
Assay type: cell-based
Details: L1210, unnatural vs natural enantiomer
Method: Compounds were tested for their cell growth inhibition of L1210 (ATCC CCL-219) mouse lymphocytic leukemia cells. A population of cells (>1×10^6 cells/mL as determined with a hemocytometer) was diluted with an appropriate amount of Dulbecco-modified Eagle Medium (DMEM, Gibco) containing 10% fetal bovine serum (FBS, Gibco) to a final concentration of 30,000 cells/mL. To each well of a 96-well plate (Corning® Costar®), 100 μL of the cell-media solution was added with a multichannel pipette. The cultures were incubated at 37° C. in an atmosphere of 5% CO2 and 95% humidified air for 24 hours. The test compounds were added to the plate as follows: test substances were diluted in DMSO to a concentration of 1 mM and 10-fold serial dilutions were performed on a separate 96-well plate. Fresh culture medium (100 μL) was added to each well of cells to constitute 200 μL of medium per well followed by 2 μL of each test agent. Compounds were tested in duplicate (≧2 times) at six concentrations between 0-100 nM or 0-1000 nM. Following addition, cultures were incubated for an additional 72 hours.
A phosphatase assay was used to establish the IC50 values as follows: the media in each cell was removed and 100 μL of phosphatase solution (100 mg phosphatase substrate in 30 mL 0.1 M NaOAc, pH 5.5, 0.1% Triton® X-100 buffer) was added to each well. The plates were incubated at 37° C. for 5 minutes. […]

SMILES | fold less potent than the natural enantiomers [fold]
CN1Oc2cc3c(c4cccc(c24)C1=O)C(CCl)CN3C(=O)c1cc2cc(NC(=O)c3cc4ccccc4[nH]3)ccc2[nH]1 (single isomer, unassigned; (-)) [(−)-6, N-(2-(10-(Chloromethyl)-5-methyl-4-oxo-5,8,9,10-tetrahydro-4H-pyrrolo[3′,2′:5,6]naphtho[1,8-de][1,2]oxazine-8-carbonyl)-1H-indol-5-yl)-1H-indole-2-carboxamide] | > 200
O=C(Nc1ccc2[nH]c(C(=O)N3CC(CCl)c4c3cc3c5c(cccc45)C(=O)NO3)cc2c1)c1cc2ccccc2[nH]1 (single isomer, unassigned; (-)) [(−)-7, N-(2-(10-(Chloromethyl)-4-oxo-5,8,9,10-tetrahydro-4H-pyrrolo[3′,2′:5,6]naphtho[1,8-de][1,2]oxazine-8-carbonyl)-1H-indol-5-yl)-1H-indole-2-carboxamide] | > 200
